# From patent US20030013660A1, “Dioxolane analogs for improved inter-cellular delivery” (Shire BioChem Inc., priority 2000, published 2003)
# Values joined by “and” are separate entries in the source; they are usually repeats but may differ in a detail not shown here. Identical values can stand only once. The name of at least one read-out is uncertain.
# Test system: CEM/dCK-
# Assay: 3H-TdR incorporation at 72 hr (24 hr drug exposure, wash, 48 hr)
# Assay type: cell-based
# Conditions: ratio of IC50 CEM/dCK- to IC50 CCRF-CEM
# Experimental: Exposition of 24 hr to drug, wash, incubated for another 48 hr (total of 72 hr assay)
# (3H-Thymidine Incorporation Assay)
compound,measurement,value
"O=c1nc(NS(=O)(=O)c2ccc([N+](=O)[O-])cc2[N+](=O)[O-])ccn1[C@@H]1CO[C@H](CO)O1 [Compound 188, N-[1-(2-HYDROXYMETHYL- [1,3]DIOXOLAN-4-YL)-2- OXO-1,2-DIHYDRO- […]-4-YL]-2,4- DINITRO- BENZENESULFONAMIDE]",Factor* (Resistance Factor = Ratio of dCK- on Wild-type CCRF-CEM),>127 and >67 and >91
